These are yes or no findings as the source states them, for the method shown. Binding seen in cells or lysates may run through a third protein. Some results given as binding are weak or reduced against the parent protein; the word gives no strength.

Common to all, as to assay: cross-linking; oxidative cross-linking with copper phenanthroline (CuP) of HEK 293T cells stably expressing the transporter, 22 °C, 15 min, HEPES buffered saline pH 7.4, stopped with 10 mM N-ethylmaleimide; lysate in non-reducing sample buffer, anti-FLAG immunoblot; 100 mM DTT on lysates to reverse
A general note: A western blot detects proteins with antibodies after separation by electrophoresis.

In assay [1] the target is human dopamine transporter (hDAT) R304A (human) (UniProt Q01959).
Assay [2] concerns the target human dopamine transporter (hDAT) D301A (human) (UniProt Q01959).
The target in assay [3] is human dopamine transporter (hDAT) D301N (human) (UniProt Q01959).
The target of assay [4] is human dopamine transporter (hDAT) WT (human) (UniProt Q01959).
The target of assay [5] is human dopamine transporter (hDAT) E307A (human) (UniProt Q01959).

For the substance “human dopamine transporter (hDAT) R304A (from UniProt Q01959 1-620)”, the binding result in assay [1] is on record as “binds”. Regarding “human dopamine transporter (hDAT) D301A (from UniProt Q01959 1-620)”, in assay [2], the binding entry is “binds”.

Consider “human dopamine transporter (hDAT) D301N (from UniProt Q01959 1-620)”, for which the binding entry in assay [3] was “binds”. For “human dopamine transporter (hDAT) WT (from UniProt Q01959 1-620)”, the binding entry in assay [4] is “binds”. Turning to “human dopamine transporter (hDAT) E307A (from UniProt Q01959 1-620)”, the binding result in assay [5] is on record as “binds”.

For the origin of these results see PMC11011927.
